# The list shows a part of the results.
# B1: Protectin (Homo sapiens), P13987 (protein)
# chain: MGIQGGSVLFGLLLVLAVFCHSGHSLQCYNCPNPTADCKTAVNCSSDFDACLITKAGLQVYNKCWKFEHCNFNDVTTRLRENELTYYCCKKDLCNFNEQLENGGTSLSEKTVLLLVTPFLAAAWSLHP
# Legend:
# Assay in all cases: glycan array binding signal (z-score within array); higher = stronger binding
# Settings in all cases: glycan notation: IUPAC condensed, linker removed
# [1] = molecular target: Neu5Ac(a2-3)[GalNAc(b1-4)]Gal(b1-4)Glc
# In short: (§1)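 Glycan array data came from 3228 arrays in the Consortium for Functional Glycomics database, and only arrays with an available protein sequence were kept. Glycan names were put into IUPAC-condensed notation, and columns mapping to the same glycan were averaged. The binding signal is a within-array Z-score, averaged across arrays of one protein sequence run at different concentrations or buffers and across linkers. A negative Z-score can be read as non-binding.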
# [2] = molecular target: Neu5Ac(a2-3)[GalNAc(b1-4)]Gal(b1-4)GlcNAc
# In short: as §1
# [3] = molecular target: Neu5Ac(a2-3)[GalNAc(b1-4)]Gal(b1-4)GlcNAc(b1-3)GalNAc
# In short: as §1
# [4] = molecular target: Neu5Ac(a2-3)[Neu5Ac(a2-6)]GalNAc
# In short: as §1
# Neu5Ac(a2-6)Gal = molecular target: Neu5Ac(a2-6)Gal
# In short: as §1
# [5] = molecular target: Neu5Ac(a2-6)Gal(b1-3)GlcNAc(b1-3)[Gal(b1-4)GlcNAc(b1-6)]Gal(b1-4)Glc
# In short: as §1
# Neu5Ac(a2-6)Gal(b1-4)Glc = molecular target: Neu5Ac(a2-6)Gal(b1-4)Glc
# In short: as §1
# [6] = molecular target: Neu5Ac(a2-6)Gal(b1-4)GlcNAc
# In short: as §1
# [7] = molecular target: Neu5Ac(a2-6)Gal(b1-4)GlcNAc(b1-2)Man(a1-3)Man(b1-4)GlcNAc(b1-4)GlcNAc
# In short: as §1
# [8] = molecular target: Neu5Ac(a2-6)Gal(b1-4)GlcNAc(b1-2)Man(a1-3)[Gal(b1-4)GlcNAc(b1-2)Man(a1-6)]Man(b1-4)GlcNAc(b1-4)GlcNAc
# In short: as §1
# [9] = molecular target: Neu5Ac(a2-6)Gal(b1-4)GlcNAc(b1-2)Man(a1-3)[GlcNAc(b1-2)Man(a1-6)]Man(b1-4)GlcNAc(b1-4)GlcNAc
# In short: as §1
# [10] = molecular target: Neu5Ac(a2-6)Gal(b1-4)GlcNAc(b1-2)Man(a1-3)[GlcNAc(b1-2)Man(b1-4)GlcNAc(b1-2)Man(a1-6)]Man(b1-4)GlcNAc(b1-4)GlcNAc
# In short: as §1
# [11] = molecular target: Neu5Ac(a2-6)Gal(b1-4)GlcNAc(b1-2)Man(a1-3)[Man(a1-6)]Man(b1-4)GlcNAc(b1-4)GlcNAc
# In short: as §1
# [12] = molecular target: Neu5Ac(a2-6)Gal(b1-4)GlcNAc(b1-2)Man(a1-3)[Neu5Ac(a2-6)Gal(b1-4)GlcNAc(b1-2)Man(a1-6)]Man(b1-4)GlcNAc(b1-4)GlcNAc
# In short: as §1
# [13] = molecular target: Neu5Ac(a2-6)Gal(b1-4)GlcNAc(b1-2)Man(a1-6)Man(b1-4)GlcNAc(b1-4)GlcNAc
# In short: as §1
# [14] = molecular target: Neu5Ac(a2-6)Gal(b1-4)GlcNAc(b1-2)Man(a1-6)[Gal(b1-4)GlcNAc(b1-2)Man(a1-3)]Man(b1-4)GlcNAc(b1-4)GlcNAc
# In short: as §1
# [15] = molecular target: Neu5Ac(a2-6)Gal(b1-4)GlcNAc(b1-2)Man(a1-6)[GlcNAc(b1-2)Man(a1-3)]Man(b1-4)GlcNAc(b1-4)GlcNAc
# In short: as §1
# [16] = molecular target: Neu5Ac(a2-6)Gal(b1-4)GlcNAc(b1-2)Man(a1-6)[Man(a1-3)]Man(b1-4)GlcNAc(b1-4)GlcNAc
# In short: as §1
# [17] = molecular target: Neu5Ac(a2-6)Gal(b1-4)GlcNAc(b1-3)Gal(b1-3)GlcNAc
# In short: as §1
# [18] = molecular target: Neu5Ac(a2-6)Gal(b1-4)GlcNAc(b1-3)Gal(b1-4)GlcNAc
# In short: as §1
# [19] = molecular target: Neu5Ac(a2-6)Gal(b1-4)GlcNAc(b1-3)Gal(b1-4)GlcNAc(b1-3)Gal(b1-4)GlcNAc
# In short: as §1
# [20] = molecular target: Neu5Ac(a2-6)Gal(b1-4)GlcNAc(b1-3)Gal(b1-4)[Fuc(a1-3)]GlcNAc(b1-3)Gal(b1-4)[Fuc(a1-3)]GlcNAc
# In short: as §1
# [21] = molecular target: Neu5Ac(a2-6)Gal(b1-4)GlcNAc(b1-3)GalNAc
# In short: as §1
# [22] = molecular target: Neu5Ac(a2-6)Gal(b1-4)GlcNAc6S
# In short: as §1
# Neu5Ac(a2-6)GalNAc = molecular target: Neu5Ac(a2-6)GalNAc
# In short: as §1
# [23] = molecular target: Neu5Ac(a2-6)GalNAc(b1-4)GlcNAc
# In short: as §1
# [24] = molecular target: Neu5Ac(a2-6)GlcNAc(b1-4)GlcNAc
# In short: as §1
# [25] = molecular target: Neu5Ac(a2-6)GlcNAc(b1-4)GlcNAc(b1-4)GlcNAc
# In short: as §1
# Neu5Ac(a2-8)Neu5Ac = molecular target: Neu5Ac(a2-8)Neu5Ac
# In short: as §1
# [26] = molecular target: Neu5Ac(a2-8)Neu5Ac(a2-3)Gal(b1-3)GalNAc(b1-4)[Neu5Ac(a2-8)Neu5Ac(a2-3)]Gal(b1-4)Glc
# In short: as §1
# [27] = molecular target: Neu5Ac(a2-8)Neu5Ac(a2-3)Gal(b1-4)Glc
# In short: as §1
# [28] = molecular target: Neu5Ac(a2-8)Neu5Ac(a2-3)[Gal(b1-3)GalNAc(b1-4)]Gal(b1-4)Glc
# In short: as §1
# [29] = molecular target: Neu5Ac(a2-8)Neu5Ac(a2-3)[GalNAc(b1-4)]Gal(b1-4)Glc
# In short: as §1
# [30] = molecular target: Neu5Ac(a2-8)Neu5Ac(a2-8)Neu5Ac
# In short: as §1
# [31] = molecular target: Neu5Ac(a2-8)Neu5Ac(a2-8)Neu5Ac(a2-3)Gal(b1-4)Glc
# In short: as §1
# [32] = molecular target: Neu5Ac(a2-8)Neu5Ac(a2-8)Neu5Ac(a2-3)[GalNAc(b1-4)]Gal(b1-4)Glc
# In short: as §1
# [33] = molecular target: Neu5Ac(a2-8)Neu5Ac(a2-8)Neu5Ac(a2-8)Neu5Ac(a2-3)[GalNAc(b1-4)]Gal(b1-4)Glc
# In short: as §1
# [34] = molecular target: Neu5Ac(b2-6)Gal(b1-4)GlcNAc
# In short: as §1
# Neu5Ac(b2-6)GalNAc = molecular target: Neu5Ac(b2-6)GalNAc
# In short: as §1
# [35] = molecular target: Neu5Ac9Ac(a2-3)Gal(b1-3)GlcNAc
# In short: as §1
# [36] = molecular target: Neu5Ac9Ac(a2-3)Gal(b1-4)GlcNAc
# In short: as §1
# [37] = molecular target: Neu5Ac9Ac(a2-6)Gal(b1-4)GlcNAc
# In short: as §1
# [38] = molecular target: Neu5Gc(a2-3)Gal(b1-3)GlcNAc
# In short: as §1
# [39] = molecular target: Neu5Gc(a2-3)Gal(b1-3)[Fuc(a1-4)]GlcNAc
# In short: as §1
# Neu5Gc(a2-3)Gal(b1-4)Glc = molecular target: Neu5Gc(a2-3)Gal(b1-4)Glc
# In short: as §1
# [40] = molecular target: Neu5Gc(a2-3)Gal(b1-4)GlcNAc
# In short: as §1
# [41] = molecular target: Neu5Gc(a2-3)Gal(b1-4)[Fuc(a1-3)]GlcNAc
# In short: as §1
# [42] = molecular target: Neu5Gc(a2-6)Gal(b1-4)GlcNAc
# In short: as §1
# Neu5Gc(a2-6)GalNAc = molecular target: Neu5Gc(a2-6)GalNAc
# In short: as §1
# [43] = molecular target: Neu5Gc(b2-6)Gal(b1-4)GlcNAc
# In short: as §1
binder,measurement,setting,value
B1,glycan array binding signal (z-score),[1],-1.06
same,glycan array binding signal (z-score),[2],-0.485
same,glycan array binding signal (z-score),[3],0.609
same,glycan array binding signal (z-score),[4],-0.657
same,glycan array binding signal (z-score),Neu5Ac(a2-6)Gal,-0.918
same,glycan array binding signal (z-score),[5],-1.48
same,glycan array binding signal (z-score),Neu5Ac(a2-6)Gal(b1-4)Glc,-0.678
same,glycan array binding signal (z-score),[6],-0.169
same,glycan array binding signal (z-score),[7],1.36
same,glycan array binding signal (z-score),[8],-1.94
same,glycan array binding signal (z-score),[9],0.262
same,glycan array binding signal (z-score),[10],-0.227
same,glycan array binding signal (z-score),[11],-0.914
same,glycan array binding signal (z-score),[12],0.761
same,glycan array binding signal (z-score),[13],-0.039
same,glycan array binding signal (z-score),[14],-0.207
same,glycan array binding signal (z-score),[15],1.22
same,glycan array binding signal (z-score),[16],-0.072
same,glycan array binding signal (z-score),[17],-0.84
same,glycan array binding signal (z-score),[18],-1.61
same,glycan array binding signal (z-score),[19],-0.179
same,glycan array binding signal (z-score),[20],1.68
same,glycan array binding signal (z-score),[21],-0.264
same,glycan array binding signal (z-score),[22],0.066
same,glycan array binding signal (z-score),Neu5Ac(a2-6)GalNAc,-0.755
same,glycan array binding signal (z-score),[23],-0.801
same,glycan array binding signal (z-score),[24],-0.361
same,glycan array binding signal (z-score),[25],-0.128
same,glycan array binding signal (z-score),Neu5Ac(a2-8)Neu5Ac,-0.427
same,glycan array binding signal (z-score),[26],0.663
same,glycan array binding signal (z-score),[27],-0.849
same,glycan array binding signal (z-score),[28],0.705
same,glycan array binding signal (z-score),[29],1.28
same,glycan array binding signal (z-score),[30],-0.999
same,glycan array binding signal (z-score),[31],-1.18
same,glycan array binding signal (z-score),[32],-0.316
same,glycan array binding signal (z-score),[33],-1.37
same,glycan array binding signal (z-score),[34],-0.059
same,glycan array binding signal (z-score),Neu5Ac(b2-6)GalNAc,-1.58
same,glycan array binding signal (z-score),[35],0.94
same,glycan array binding signal (z-score),[36],-1.07
same,glycan array binding signal (z-score),[37],-0.346
same,glycan array binding signal (z-score),[38],1.16
same,glycan array binding signal (z-score),[39],0.087
same,glycan array binding signal (z-score),Neu5Gc(a2-3)Gal(b1-4)Glc,2.04
same,glycan array binding signal (z-score),[40],-1.34
same,glycan array binding signal (z-score),[41],0.769
same,glycan array binding signal (z-score),[42],0.675
same,glycan array binding signal (z-score),Neu5Gc(a2-6)GalNAc,0.341
same,glycan array binding signal (z-score),[43],-0.488

# Rewritten as tab-separated lines: entries from further up.
binder	measurement	setting	value
B1	glycan array binding signal (z-score)	[4]	-0.657
same	glycan array binding signal (z-score)	Neu5Ac(a2-6)Gal	-0.918
same	glycan array binding signal (z-score)	[5]	-1.48
same	glycan array binding signal (z-score)	Neu5Ac(a2-6)Gal(b1-4)Glc	-0.678
same	glycan array binding signal (z-score)	[6]	-0.169
same	glycan array binding signal (z-score)	[7]	1.36
same	glycan array binding signal (z-score)	[8]	-1.94
same	glycan array binding signal (z-score)	[9]	0.262
same	glycan array binding signal (z-score)	[10]	-0.227
same	glycan array binding signal (z-score)	[11]	-0.914
same	glycan array binding signal (z-score)	[12]	0.761
same	glycan array binding signal (z-score)	[13]	-0.039
same	glycan array binding signal (z-score)	[14]	-0.207
same	glycan array binding signal (z-score)	[15]	1.22
